Experiment [1] addresses T1, Flag-STX17 (Flag-tagged syntaxin 17), P56962.
T1 chain: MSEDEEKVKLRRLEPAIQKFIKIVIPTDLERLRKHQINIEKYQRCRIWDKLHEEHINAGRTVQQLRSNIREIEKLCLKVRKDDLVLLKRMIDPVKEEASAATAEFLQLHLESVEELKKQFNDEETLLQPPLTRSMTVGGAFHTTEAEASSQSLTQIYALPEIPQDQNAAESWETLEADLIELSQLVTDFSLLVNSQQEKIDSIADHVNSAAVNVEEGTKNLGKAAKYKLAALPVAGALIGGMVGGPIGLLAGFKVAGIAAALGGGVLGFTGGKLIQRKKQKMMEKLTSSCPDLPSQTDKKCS
The experiment can be described thus: co-IP, MIA PaCa-2 lysate (FIG. 1E). Conditions: remark: other sources report otherwise.

Experiment [2] addresses T1, Flag-STX17 (Flag-tagged syntaxin 17), …. The experiment can be described thus: co-IP, WT and IKKα KD MIA PaCa-2 cells (FIG. 6A). Conditions: remark: other sources report otherwise.

No constants are given. Whether binding was seen depends on the method and setting. Binding seen in cells or lysates may run through a third protein. Some results given as binding are weak or reduced against the parent protein; the word gives no strength. Sequences can lack the tags named with a protein.

Our source for the binding values is US12458630.

B1: endogenous VAMP8 of MIA PaCa-2 cells, Q9BV40 1-100 (protein, human, UniProt Q9BV40 1-100, looked up)
chain: MEEASEGGGNDRVRNLQSEVEGVKNIMTQNVERILARGENLEHLRNKTEDLEATSEHFKTTSQKVARKFWWKNVKMIVLICVIVFIIILFIVLFATGAFS
Take B1: the binding entry in experiment [1] and in experiment [2] was “binds” throughout.
